# Some of the results follow.
# Molecular target: T1, OsSMF1 (Oryza sativa, UniProt Q6ZLB0 1-436)
# T1 sequence: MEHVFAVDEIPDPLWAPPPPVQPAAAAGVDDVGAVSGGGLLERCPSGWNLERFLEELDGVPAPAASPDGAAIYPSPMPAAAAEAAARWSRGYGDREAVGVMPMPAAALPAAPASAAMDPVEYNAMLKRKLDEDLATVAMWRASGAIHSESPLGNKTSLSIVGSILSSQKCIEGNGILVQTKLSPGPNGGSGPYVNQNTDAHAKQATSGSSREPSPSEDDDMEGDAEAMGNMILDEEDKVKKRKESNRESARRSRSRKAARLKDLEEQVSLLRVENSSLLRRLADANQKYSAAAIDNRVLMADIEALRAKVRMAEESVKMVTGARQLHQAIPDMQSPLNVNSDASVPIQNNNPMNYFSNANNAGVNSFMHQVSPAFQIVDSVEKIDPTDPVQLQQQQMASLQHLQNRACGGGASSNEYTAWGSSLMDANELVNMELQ
# Assay: protein-binding microarray (RPBM); PBS, 2% BSA, 51.3 ng/ul salmon testes DNA, 50 uM zinc acetate, 200 nM TF, 25 C, 1 h; high values mean tight binding
# Conditions: protein: recombinant; tags: N-terminal polyhistidine and DsRed monomer fusion (pET32a); chain copies: 2; label: CyDye5-dUTP incorporated in the synthesized complementary strand; 3' TTTTT single-stranded linker to array surface; dsDNA, one strand shown
# Procedure, shortened: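 Polyhistidine-tagged DsRed fusions of transcription factors, joined at the N-terminus, were expressed in E. coli BL21-CodonPlus and isolated on Ni–NTA. They were incubated at 200 nM for 1 h at 25 °C on a custom Agilent array, double-stranded and BSA-blocked, in PBS with 2% BSA, salmon testes DNA and 50 µM zinc acetate. The binding signal is per-feature fluorescence intensity (arbitrary units) read on an Axon 4000B scanner after washing.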
row,Sequence,binding signal
1,TTTAGCGTATTTTCTGTGGGTCCCATTTACCACGTCAGCACGGAGTCACCTAGTGCAG,29400 fluorescence intensity (a.u.)
2,GAGTTGGGCTATATTTGTTTTCTATTCGAACAATTTGGTACGGAGTCACCTAGTGCAG,3660 fluorescence intensity (a.u.)
3,ACTGGTCTACACCGCGTCGCAAAATACCGTCAGACGGATGCGGAGTCACCTAGTGCAG,3540 fluorescence intensity (a.u.)
4,TTTCAGTAGCGTCGGCTGCTCTATCTACTTGCATTGCCTGCGGAGTCACCTAGTGCAG,41000 fluorescence intensity (a.u.)
5,AAGCATCCATCCAACCATCCACGTGTCCGTCACAGCATCTCGGAGTCACCTAGTGCAG,20200 fluorescence intensity (a.u.)
6,CATGCACGCATGGCGATCCTTGTAGAATTAATCCGAACAGCGGAGTCACCTAGTGCAG,3260 fluorescence intensity (a.u.)
7,CCACCACACATATAACCCAGCGACGTGGCCTCCGCTCGCTCGGAGTCACCTAGTGCAG,5710 fluorescence intensity (a.u.)
8,GTGGAGGTGATGTGATGTGATTAGTTGACGAGACGGGGAGCGGAGTCACCTAGTGCAG,3210 fluorescence intensity (a.u.)
9,CCACAGCTTGTGCATTCTTACAAGCATAACACGTGGACGACGGAGTCACCTAGTGCAG,10200 fluorescence intensity (a.u.)
10,TCGAGATATTTTGGAGTGGTCATCATCACTCCCTCGTCGCCGGAGTCACCTAGTGCAG,3380 fluorescence intensity (a.u.)
11,AGCCTCCCCACCAACCGCCACGTCAGCGTGCTTCACGCGTCGGAGTCACCTAGTGCAG,18700 fluorescence intensity (a.u.)
12,TTTATACCCTCCTGATCAGTGCATCTAGTGCCGTCATCCTCGGAGTCACCTAGTGCAG,4500 fluorescence intensity (a.u.)
13,GCAGTAGTATGTTGTGCGCAGCTATCTTGCGGCTGCACCGCGGAGTCACCTAGTGCAG,3360 fluorescence intensity (a.u.)
14,TTTATCGGATGTGACGAGGTAACACAATCGTGGCAACGCGCGGAGTCACCTAGTGCAG,5440 fluorescence intensity (a.u.)
15,CTTCTCCCTTACGTTCCGTTTGCATCATCTGCCTTGCACACGGAGTCACCTAGTGCAG,3240 fluorescence intensity (a.u.)
16,ATGTATGATGATGATGAAGAAGATGATGGTATCGAATCAACGGAGTCACCTAGTGCAG,30000 fluorescence intensity (a.u.)
17,ACGCGCCGCGAGCAGGTGACGTCAGCGGCAGCGGCGGCGGCGGAGTCACCTAGTGCAG,10300 fluorescence intensity (a.u.)
18,CTCATTTATTCACTTGCCACATCAGTTTTCATCCTATGTGCGGAGTCACCTAGTGCAG,6740 fluorescence intensity (a.u.)
19,GCTCACAAAGTTTGCCAAAGGTTGCCACACCTCATGTTAGCGGAGTCACCTAGTGCAG,3810 fluorescence intensity (a.u.)
20,TTGATGGATTCACCGGATTGTGCATATTTGCATCGTGGGACGGAGTCACCTAGTGCAG,3200 fluorescence intensity (a.u.)
21,CCTCACCATCCAACCTCGCCACCTGACGATTCCCCTAAGCCGGAGTCACCTAGTGCAG,3540 fluorescence intensity (a.u.)
22,ACCTAGAGTCACTGACATGTAGGTCCATACCAGGCCCACACGGAGTCACCTAGTGCAG,4000 fluorescence intensity (a.u.)
23,AGAAAAGAAAACGCGGCAATAAACAATGACACGGCCTGTCCGGAGTCACCTAGTGCAG,4200 fluorescence intensity (a.u.)
24,ATGTCGTCGACGACCGCGCGTCGTCGACGCAGAAAGGACCCGGAGTCACCTAGTGCAG,3700 fluorescence intensity (a.u.)
25,ACCGGTAGACGTGACGTGAGCAATGAGCTTTTCGGCCGTCCGGAGTCACCTAGTGCAG,7540 fluorescence intensity (a.u.)
26,CACCACAGCCGCCAACGCCATCATCGGCTGCACCCAGGAACGGAGTCACCTAGTGCAG,3290 fluorescence intensity (a.u.)
27,CCCCTGCAGTGACGCGATCATATGCATGAATGTACGTGCGCGGAGTCACCTAGTGCAG,4420 fluorescence intensity (a.u.)

row,Sequence,binding signal
1,AGAGATCAATGTTGCGTAACGACAAATTAGTTGTTGACTTCGGAGTCACCTAGTGCAG,4560 fluorescence intensity (a.u.)
2,GTGCCTCCGCACACGCCATGGCCCAGCAAGGCAGACGATGCGGAGTCACCTAGTGCAG,3960 fluorescence intensity (a.u.)
3,ATTCATCTAAAAGACCGCAGAGATGGGCCGTGGGCCGTGGCGGAGTCACCTAGTGCAG,3190 fluorescence intensity (a.u.)
4,GCCAGCCAGCCACCCACAACACACACATCACACTGGCCGTCGGAGTCACCTAGTGCAG,3570 fluorescence intensity (a.u.)
5,CTCGTACTTTTACCACGCGATACCACTCGTGACGTCACGCCGGAGTCACCTAGTGCAG,11700 fluorescence intensity (a.u.)
6,CTAATTGAAATCACAAATGCTGAGTTGCTGACATGCACCACGGAGTCACCTAGTGCAG,4570 fluorescence intensity (a.u.)
7,TCCTGCTGCTCTCCTCCGACCTCCGATCCGCGGCTTGCCACGGAGTCACCTAGTGCAG,3280 fluorescence intensity (a.u.)
8,GCCGCCCTTCCCTTATGCCGTGTCACCGCCACCGCTGCATCGGAGTCACCTAGTGCAG,13300 fluorescence intensity (a.u.)
9,CGACGCGCACCGCACCGCGCAAGCACACGACACCTCGCGGCGGAGTCACCTAGTGCAG,3430 fluorescence intensity (a.u.)
10,AAACAGTACCGGCGCGATTTATGACGGTTTCCTCGCGCCGCGGAGTCACCTAGTGCAG,3410 fluorescence intensity (a.u.)
11,AAATGTTTCACACGTGTATGATCGTTTTGGAACTGTCACTCGGAGTCACCTAGTGCAG,9010 fluorescence intensity (a.u.)
12,TCGCAGGCTTTAGCTCCCGCACGCGGCACGTCGTCGTCTTCGGAGTCACCTAGTGCAG,3200 fluorescence intensity (a.u.)
13,GGAAGAAGTATCTAGCAAATTACTACTCTCTCTGTCCCTCCGGAGTCACCTAGTGCAG,33400 fluorescence intensity (a.u.)
14,TATTAGAGTTGTGTTTGAGAGGAGATGAATCATCAACACACGGAGTCACCTAGTGCAG,32200 fluorescence intensity (a.u.)
15,GGAAAGAGAAGAGAGGAAAGAGAGATGACGTGGACACCTGCGGAGTCACCTAGTGCAG,21100 fluorescence intensity (a.u.)
16,CGTAAGCGCCACGTTAATGCCACGTGGGGCGAAGACCTAGCGGAGTCACCTAGTGCAG,15100 fluorescence intensity (a.u.)
17,ACCTGTCATACACACATAACTTTTCAGTCACATCATCTTCCGGAGTCACCTAGTGCAG,3330 fluorescence intensity (a.u.)
18,AACATGACAAGTGCATGTGTCATGACAAACTAGGAACTACCGGAGTCACCTAGTGCAG,5180 fluorescence intensity (a.u.)
19,CCCTTCGGCCCATCTCCCTCCTTGGCCCATGTCGGCCCAGCGGAGTCACCTAGTGCAG,21800 fluorescence intensity (a.u.)
20,ACTTAAGGTAGCTAAATTATTCGTCATCAAGACCTTCCTACGGAGTCACCTAGTGCAG,5690 fluorescence intensity (a.u.)
21,CTCCAACTGTCCAACCCCACACAGGTCAGCACAAGGCATGCGGAGTCACCTAGTGCAG,4050 fluorescence intensity (a.u.)
22,ATACATTGATTAATCAGCCAGCCAGCCAGCCAGCCACTGACGGAGTCACCTAGTGCAG,3440 fluorescence intensity (a.u.)
23,CGCCCACTTGACTATTTCGTGGACCCTTCCTGTCTTGTCCCGGAGTCACCTAGTGCAG,3280 fluorescence intensity (a.u.)
24,CGTGTCGTCGTGTCGCCCCACTCGCCCGTAATAAGTCCGTCGGAGTCACCTAGTGCAG,3850 fluorescence intensity (a.u.)
25,TTGGCCTCTTGTATACTACCATTTGCAACAATAAAGCTTTCGGAGTCACCTAGTGCAG,4480 fluorescence intensity (a.u.)
26,TCCCACTAGTACGTCGGCGCTACCGTGGCATGACACGTTACGGAGTCACCTAGTGCAG,8270 fluorescence intensity (a.u.)
27,CAGAGAAGGTTCGAGACGCGTGGAGCAGCTTCGTCTCCGCCGGAGTCACCTAGTGCAG,4020 fluorescence intensity (a.u.)

# Another view of some results above.
row	Sequence	binding signal
12	TCGCAGGCTTTAGCTCCCGCACGCGGCACGTCGTCGTCTTCGGAGTCACCTAGTGCAG	3200 fluorescence intensity (a.u.)
19	CCCTTCGGCCCATCTCCCTCCTTGGCCCATGTCGGCCCAGCGGAGTCACCTAGTGCAG	21800 fluorescence intensity (a.u.)
20	ACTTAAGGTAGCTAAATTATTCGTCATCAAGACCTTCCTACGGAGTCACCTAGTGCAG	5690 fluorescence intensity (a.u.)

# Source: paper PMC7819943, “Rice protein-binding microarrays: a tool to detect cis-acting elements near promoter regions in rice”
